{
  "sequences": {"note": "Chains of the proteins cited; added tags and fusions are not shown. Residues count along the entry.", "UniProt P22290, residues 211-525": "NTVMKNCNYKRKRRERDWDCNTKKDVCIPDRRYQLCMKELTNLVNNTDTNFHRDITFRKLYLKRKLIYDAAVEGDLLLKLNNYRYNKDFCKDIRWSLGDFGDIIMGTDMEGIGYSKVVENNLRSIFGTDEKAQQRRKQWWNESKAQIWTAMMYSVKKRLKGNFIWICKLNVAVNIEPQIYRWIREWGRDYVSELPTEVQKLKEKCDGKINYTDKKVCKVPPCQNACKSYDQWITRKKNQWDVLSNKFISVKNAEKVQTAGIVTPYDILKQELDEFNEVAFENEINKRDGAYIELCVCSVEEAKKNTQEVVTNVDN"},
  "source": "paper PMC3887093",
  "key": {"[1]": {"target": "Plasmodium vivax Duffy binding protein region II (DBP-RII), recombinant (Plasmodium vivax) (UniProt P22290)", "test": "crystal structure; DBP-RII with DARC 16-43, heterotrimer (two DBP-RII, one DARC); 0.1 M HEPES pH 7.4, 20% PEG 6000; 1.95 Å; both purified"}, "[2]": {"target": "Plasmodium vivax Duffy binding protein region II (DBP-RII), recombinant (Plasmodium vivax) (UniProt P22290)", "test": "crystal structure; DBP-RII with DARC 14-43, heterotetramer (two DBP-RII, two DARC); 0.1 M HEPES pH 7.4, 20% PEG 6000; 2.6 Å; both purified"}},
  "note": "Results are given in words; binding and its absence hold for the method and conditions named. Some results given as binding are weak or reduced against the parent protein; the word gives no strength.",
  "data": [
    {"substance": "Plasmodium vivax Duffy binding protein region II (DBP-RII), recombinant (from UniProt P22290 211-525) (domain or fragment)", "values": [
      {"measurement": "binding", "setting": "[1]", "value": "binds"},
      {"measurement": "binding", "setting": "[2]", "value": "binds"}
    ]}
  ]
}
